Binding data for 1 substance are collected here from paper PMC4227754.

No constants are given. Whether binding was seen depends on the method and setting. Binding seen in cells or lysates may run through a third protein. A result given as binding can be weak or reduced; the word gives no strength.

This assay concerns the target T1, KH-type splicing regulatory protein (KSRP) (human (endogenous in DLD-1)) (UniProt Q92945).
T1 sequence: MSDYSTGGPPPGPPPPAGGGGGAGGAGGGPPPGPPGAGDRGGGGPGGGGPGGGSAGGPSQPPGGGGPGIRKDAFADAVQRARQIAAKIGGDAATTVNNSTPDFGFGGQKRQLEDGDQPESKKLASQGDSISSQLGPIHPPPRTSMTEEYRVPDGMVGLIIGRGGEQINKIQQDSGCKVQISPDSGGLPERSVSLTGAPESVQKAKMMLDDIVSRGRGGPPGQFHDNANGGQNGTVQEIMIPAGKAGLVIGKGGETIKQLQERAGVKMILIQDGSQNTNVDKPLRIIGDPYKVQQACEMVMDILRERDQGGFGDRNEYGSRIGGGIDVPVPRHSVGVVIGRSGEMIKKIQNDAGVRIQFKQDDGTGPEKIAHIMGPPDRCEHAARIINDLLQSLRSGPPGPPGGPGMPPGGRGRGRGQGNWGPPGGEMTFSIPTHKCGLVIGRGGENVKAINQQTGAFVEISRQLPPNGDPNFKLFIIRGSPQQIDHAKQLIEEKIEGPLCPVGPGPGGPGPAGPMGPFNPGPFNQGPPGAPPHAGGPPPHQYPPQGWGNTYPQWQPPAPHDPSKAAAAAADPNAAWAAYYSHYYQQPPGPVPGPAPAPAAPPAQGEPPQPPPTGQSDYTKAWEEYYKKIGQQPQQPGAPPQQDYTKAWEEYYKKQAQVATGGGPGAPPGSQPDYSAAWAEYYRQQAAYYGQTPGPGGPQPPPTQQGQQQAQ
The assay can be described thus: co-IP; extracts of CM-treated DLD-1 cells incubated with or without resveratrol; extracts digested with RNase A and RNase T1, pre-cleared, incubated with a polyclonal KSRP antibody overnight at 4°C in RIPA buffer, captured on protein A/G-agarose; western blot for PM-Scl.

As to “exosomal component PM-Scl (human (endogenous in DLD-1))”, the binding result is listed as “binds”.
